These are yes or no findings as the source states them, for the method shown. Some results given as binding are weak or reduced against the parent protein; the word gives no strength.
Target: human Scribble PDZ1 domain (728-815) (human, UniProt Q14160 728-815)
Assay: crystal structure

Protein sequences, listed by entry. Tags and fused reporters are not part of them. Residues count along the entry.
UniProt Q14160, residues 728-815: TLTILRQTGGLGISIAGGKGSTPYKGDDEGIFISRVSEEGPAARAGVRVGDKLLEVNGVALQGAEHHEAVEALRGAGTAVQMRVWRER

binding: binds
Binder: PHTNETSL (phosphorylated Ser residue at position -1 (pS828): PHTNET(phoS)L) [phosphorylated MCC 8-mer peptide (phospho-Ser at position -1)]
